In the supplement of paper PMC10849652:
The list shows a part of the results.

Protein sequences, listed by entry. Tags and fused reporters are not part of them. Lines headed by an entry give the natural chain unless they say otherwise; changes in a name come on top.
UniProt Q8TF74: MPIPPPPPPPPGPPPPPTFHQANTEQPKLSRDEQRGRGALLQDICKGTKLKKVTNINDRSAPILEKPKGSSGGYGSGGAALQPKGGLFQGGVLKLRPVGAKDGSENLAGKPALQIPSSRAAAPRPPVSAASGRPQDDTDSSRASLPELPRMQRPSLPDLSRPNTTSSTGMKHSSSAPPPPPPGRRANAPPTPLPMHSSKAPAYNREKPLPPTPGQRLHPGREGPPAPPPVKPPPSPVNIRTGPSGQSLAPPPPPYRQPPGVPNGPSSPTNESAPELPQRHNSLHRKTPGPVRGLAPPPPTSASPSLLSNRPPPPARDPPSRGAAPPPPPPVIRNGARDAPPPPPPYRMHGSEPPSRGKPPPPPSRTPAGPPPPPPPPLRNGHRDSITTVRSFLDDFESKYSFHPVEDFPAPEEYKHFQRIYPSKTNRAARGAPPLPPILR
UniProt Q9Y4P8: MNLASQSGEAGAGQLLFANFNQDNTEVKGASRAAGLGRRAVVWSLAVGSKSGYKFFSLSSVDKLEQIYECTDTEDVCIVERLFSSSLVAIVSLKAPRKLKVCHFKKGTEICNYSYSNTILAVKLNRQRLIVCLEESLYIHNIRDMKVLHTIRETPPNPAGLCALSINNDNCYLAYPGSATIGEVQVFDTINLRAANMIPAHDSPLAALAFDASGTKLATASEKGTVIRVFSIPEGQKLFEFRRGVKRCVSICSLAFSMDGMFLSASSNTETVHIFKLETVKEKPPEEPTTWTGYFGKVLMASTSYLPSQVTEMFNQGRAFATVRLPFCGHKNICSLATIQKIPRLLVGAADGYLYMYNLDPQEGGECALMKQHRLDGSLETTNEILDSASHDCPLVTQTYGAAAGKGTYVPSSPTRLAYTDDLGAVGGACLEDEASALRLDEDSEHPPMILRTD
UniProt Q3ZAQ7: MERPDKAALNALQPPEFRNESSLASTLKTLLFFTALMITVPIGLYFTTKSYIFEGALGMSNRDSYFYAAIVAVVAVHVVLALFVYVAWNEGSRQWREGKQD
UniProt Q9H967: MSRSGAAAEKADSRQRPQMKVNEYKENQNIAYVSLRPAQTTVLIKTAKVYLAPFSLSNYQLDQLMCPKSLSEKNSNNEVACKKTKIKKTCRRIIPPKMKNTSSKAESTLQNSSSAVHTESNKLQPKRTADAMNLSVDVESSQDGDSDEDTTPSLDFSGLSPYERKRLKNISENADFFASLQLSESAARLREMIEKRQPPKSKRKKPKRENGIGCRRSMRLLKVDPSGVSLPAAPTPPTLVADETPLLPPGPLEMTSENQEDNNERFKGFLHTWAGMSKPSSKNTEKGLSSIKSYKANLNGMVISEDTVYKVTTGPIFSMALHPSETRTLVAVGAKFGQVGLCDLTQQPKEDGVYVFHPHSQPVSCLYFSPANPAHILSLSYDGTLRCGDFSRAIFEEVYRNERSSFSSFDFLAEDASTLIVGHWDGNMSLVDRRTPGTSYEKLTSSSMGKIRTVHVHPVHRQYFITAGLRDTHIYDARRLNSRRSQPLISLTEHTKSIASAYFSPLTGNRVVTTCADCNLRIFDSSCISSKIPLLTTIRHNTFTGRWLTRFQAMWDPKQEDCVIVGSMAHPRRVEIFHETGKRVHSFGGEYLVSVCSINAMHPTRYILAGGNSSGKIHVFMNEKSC
UniProt P09327: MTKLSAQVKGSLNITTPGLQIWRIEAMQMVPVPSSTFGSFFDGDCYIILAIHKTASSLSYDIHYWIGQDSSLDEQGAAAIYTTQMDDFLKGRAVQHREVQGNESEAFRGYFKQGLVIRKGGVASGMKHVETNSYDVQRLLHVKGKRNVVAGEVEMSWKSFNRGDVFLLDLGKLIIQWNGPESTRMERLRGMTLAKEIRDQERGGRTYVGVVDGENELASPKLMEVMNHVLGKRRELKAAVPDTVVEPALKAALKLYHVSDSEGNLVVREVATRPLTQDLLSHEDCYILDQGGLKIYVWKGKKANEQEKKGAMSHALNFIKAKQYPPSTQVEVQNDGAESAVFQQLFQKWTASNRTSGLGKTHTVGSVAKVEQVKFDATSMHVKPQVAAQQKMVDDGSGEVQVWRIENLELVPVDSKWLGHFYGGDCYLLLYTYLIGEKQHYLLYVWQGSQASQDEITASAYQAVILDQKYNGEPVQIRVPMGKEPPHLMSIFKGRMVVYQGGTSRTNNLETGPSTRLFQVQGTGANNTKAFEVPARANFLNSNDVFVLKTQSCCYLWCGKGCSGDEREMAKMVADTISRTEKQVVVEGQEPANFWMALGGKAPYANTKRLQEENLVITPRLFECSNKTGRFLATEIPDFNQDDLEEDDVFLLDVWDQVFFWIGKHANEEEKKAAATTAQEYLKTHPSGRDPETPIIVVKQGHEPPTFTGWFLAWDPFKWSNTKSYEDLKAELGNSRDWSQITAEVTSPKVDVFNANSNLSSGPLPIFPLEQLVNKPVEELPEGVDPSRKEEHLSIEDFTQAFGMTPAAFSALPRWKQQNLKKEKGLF
UniProt Q8IWA0: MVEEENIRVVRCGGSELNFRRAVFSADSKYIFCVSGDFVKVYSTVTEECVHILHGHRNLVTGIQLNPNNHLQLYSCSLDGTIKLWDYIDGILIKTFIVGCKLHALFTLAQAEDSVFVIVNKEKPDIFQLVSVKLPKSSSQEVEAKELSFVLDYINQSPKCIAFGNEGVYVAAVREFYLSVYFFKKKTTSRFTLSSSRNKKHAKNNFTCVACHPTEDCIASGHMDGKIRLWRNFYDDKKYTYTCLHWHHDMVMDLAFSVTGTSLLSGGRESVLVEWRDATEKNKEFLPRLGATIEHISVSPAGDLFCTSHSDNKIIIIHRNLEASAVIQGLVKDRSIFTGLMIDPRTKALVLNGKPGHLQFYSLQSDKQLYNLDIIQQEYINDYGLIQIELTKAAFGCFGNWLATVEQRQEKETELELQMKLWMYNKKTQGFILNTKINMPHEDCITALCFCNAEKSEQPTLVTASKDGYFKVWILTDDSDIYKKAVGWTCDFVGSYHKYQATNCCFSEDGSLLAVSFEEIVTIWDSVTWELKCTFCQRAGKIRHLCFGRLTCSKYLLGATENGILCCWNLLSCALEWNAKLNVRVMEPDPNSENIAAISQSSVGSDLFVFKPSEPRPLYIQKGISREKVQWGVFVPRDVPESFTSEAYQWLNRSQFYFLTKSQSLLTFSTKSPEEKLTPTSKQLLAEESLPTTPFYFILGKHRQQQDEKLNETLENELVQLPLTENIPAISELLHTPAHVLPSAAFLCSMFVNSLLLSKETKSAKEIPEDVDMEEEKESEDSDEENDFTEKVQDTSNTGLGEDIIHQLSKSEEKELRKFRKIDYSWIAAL
UniProt O00308: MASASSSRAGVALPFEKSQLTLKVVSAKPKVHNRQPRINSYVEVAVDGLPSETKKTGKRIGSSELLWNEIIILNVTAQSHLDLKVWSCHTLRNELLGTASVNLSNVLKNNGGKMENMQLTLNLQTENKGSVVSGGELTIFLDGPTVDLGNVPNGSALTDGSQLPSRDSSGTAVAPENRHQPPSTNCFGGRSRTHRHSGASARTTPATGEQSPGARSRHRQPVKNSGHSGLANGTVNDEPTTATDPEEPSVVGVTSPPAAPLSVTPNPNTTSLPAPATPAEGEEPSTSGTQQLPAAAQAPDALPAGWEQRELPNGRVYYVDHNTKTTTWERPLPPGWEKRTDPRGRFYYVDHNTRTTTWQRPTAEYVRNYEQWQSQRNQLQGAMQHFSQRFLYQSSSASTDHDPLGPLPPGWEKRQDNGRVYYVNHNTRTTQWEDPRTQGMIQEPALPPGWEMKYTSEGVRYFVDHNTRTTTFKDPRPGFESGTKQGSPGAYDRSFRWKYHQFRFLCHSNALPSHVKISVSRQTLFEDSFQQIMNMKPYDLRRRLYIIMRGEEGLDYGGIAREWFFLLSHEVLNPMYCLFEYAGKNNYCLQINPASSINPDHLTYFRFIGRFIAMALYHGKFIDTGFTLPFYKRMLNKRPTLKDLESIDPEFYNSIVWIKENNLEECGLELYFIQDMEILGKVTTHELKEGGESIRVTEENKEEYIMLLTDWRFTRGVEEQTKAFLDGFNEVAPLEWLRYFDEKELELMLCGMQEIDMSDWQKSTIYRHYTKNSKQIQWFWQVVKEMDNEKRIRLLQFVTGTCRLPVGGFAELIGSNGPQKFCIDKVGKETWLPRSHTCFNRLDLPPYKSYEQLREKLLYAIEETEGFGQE
UniProt Q8NEZ3: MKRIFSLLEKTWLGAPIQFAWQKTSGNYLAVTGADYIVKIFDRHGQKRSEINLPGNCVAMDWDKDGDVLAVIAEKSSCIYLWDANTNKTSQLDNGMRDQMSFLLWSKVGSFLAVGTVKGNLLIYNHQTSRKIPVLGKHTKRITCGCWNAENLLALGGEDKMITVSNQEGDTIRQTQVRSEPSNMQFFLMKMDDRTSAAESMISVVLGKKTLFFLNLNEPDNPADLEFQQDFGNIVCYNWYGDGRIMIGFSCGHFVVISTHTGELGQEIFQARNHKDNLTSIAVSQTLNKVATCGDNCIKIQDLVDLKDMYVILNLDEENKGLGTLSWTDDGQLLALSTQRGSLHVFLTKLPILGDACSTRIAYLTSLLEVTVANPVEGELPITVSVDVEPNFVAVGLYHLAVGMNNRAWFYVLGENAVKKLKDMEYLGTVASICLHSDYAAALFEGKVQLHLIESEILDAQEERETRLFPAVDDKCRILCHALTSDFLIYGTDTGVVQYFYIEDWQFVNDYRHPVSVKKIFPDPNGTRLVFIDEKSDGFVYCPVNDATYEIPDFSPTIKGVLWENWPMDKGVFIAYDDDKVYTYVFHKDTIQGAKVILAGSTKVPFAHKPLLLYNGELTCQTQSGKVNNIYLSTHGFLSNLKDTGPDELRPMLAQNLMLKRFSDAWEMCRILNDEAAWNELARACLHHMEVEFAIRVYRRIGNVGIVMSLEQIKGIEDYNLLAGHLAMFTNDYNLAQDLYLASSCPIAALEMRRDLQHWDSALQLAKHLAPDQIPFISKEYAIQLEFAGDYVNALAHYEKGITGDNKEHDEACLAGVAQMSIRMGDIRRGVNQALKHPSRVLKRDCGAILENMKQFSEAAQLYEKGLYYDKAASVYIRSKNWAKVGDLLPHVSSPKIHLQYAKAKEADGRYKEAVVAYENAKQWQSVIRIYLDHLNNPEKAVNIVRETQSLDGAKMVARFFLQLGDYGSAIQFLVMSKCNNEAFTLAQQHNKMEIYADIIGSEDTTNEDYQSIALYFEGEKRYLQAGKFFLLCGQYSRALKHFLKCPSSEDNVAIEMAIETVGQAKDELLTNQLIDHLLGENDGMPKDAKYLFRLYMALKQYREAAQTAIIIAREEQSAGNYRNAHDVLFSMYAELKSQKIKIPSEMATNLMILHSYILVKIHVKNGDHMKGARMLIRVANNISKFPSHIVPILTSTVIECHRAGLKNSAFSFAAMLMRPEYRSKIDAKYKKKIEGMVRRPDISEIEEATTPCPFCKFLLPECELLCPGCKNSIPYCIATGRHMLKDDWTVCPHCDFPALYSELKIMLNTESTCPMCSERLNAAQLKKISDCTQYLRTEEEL
UniProt Q5JSD2: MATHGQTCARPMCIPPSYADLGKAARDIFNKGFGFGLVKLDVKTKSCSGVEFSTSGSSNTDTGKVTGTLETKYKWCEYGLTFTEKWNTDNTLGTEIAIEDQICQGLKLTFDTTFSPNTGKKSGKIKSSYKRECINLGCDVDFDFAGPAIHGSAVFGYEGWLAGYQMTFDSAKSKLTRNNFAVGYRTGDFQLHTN
UniProt Q9NZC7: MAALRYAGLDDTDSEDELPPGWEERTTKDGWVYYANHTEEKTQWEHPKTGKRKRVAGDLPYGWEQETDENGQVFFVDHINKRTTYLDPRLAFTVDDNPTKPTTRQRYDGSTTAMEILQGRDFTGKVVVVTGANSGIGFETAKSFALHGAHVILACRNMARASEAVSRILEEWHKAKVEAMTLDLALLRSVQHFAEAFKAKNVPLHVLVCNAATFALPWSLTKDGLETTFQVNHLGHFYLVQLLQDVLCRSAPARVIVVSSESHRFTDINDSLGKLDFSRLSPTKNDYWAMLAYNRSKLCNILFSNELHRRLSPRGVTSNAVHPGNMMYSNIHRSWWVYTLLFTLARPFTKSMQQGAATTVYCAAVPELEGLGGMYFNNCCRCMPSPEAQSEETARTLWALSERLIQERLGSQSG
UniProt P57081: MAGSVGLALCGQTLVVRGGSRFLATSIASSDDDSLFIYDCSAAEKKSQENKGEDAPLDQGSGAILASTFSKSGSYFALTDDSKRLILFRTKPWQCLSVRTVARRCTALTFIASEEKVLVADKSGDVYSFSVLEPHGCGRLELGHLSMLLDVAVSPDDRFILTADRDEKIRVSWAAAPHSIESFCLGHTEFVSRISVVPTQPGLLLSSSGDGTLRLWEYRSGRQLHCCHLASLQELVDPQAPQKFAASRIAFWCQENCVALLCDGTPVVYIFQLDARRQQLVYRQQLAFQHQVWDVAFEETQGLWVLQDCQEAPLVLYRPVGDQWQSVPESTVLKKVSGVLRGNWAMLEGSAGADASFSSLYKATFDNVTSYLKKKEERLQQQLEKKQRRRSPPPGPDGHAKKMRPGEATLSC

Key:
Experiment in all cases: log2 fold change, soluble protein after heating vs DMSO (PISA); higher = thermal stabilisation; K562 cells, 10 uM, 30 min; active = over 0.2 and 3.5 SD of the protein, either way, in both replicates (recomputed)
[1] = compound: NC(=O)Nc1cc(-c2cccc(F)c2)sc1C(=O)N[C@H]1CCCNC1
Outline: (§1)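 Aliquots of K562 cells (2×10^6 cells/mL) treated with 10 μM compound for 30 min were heated for 3 min over 48°C-58°C. After pooling and extraction in PBS with 0.5% NP-40 at 4°C, soluble protein from a 21,000xg, 90 min spin was quantified by TMTpro 16plex LC-MS/MS with channel sums equalised. Thermal stability is expressed against control samples, from duplicates, as a log2 fold change.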

[2] = compound: NC(=O)c1cnc(N[C@@H]2CCCC[C@@H]2N)nc1Nc1cccc(-n2nccn2)c1
Outline: as §1

[3] = compound: NC1(c2ccc(-c3nc4ccn5c(=O)[nH]nc5c4cc3-c3ccccc3)cc2)CCC1
Outline: as §1

[4] = compound: NCC(=O)Nc1ccc(-n2nc(C(F)(F)F)cc2-c2ccc3c(ccc4ccccc43)c2)cc1
Outline: as §1

entinostat = compound: Nc1ccccc1NC(=O)c1ccc(CNC(=O)OCc2cccnc2)cc1 [entinostat]
Outline: as §1

vorinostat = compound: O=C(CCCCCCC(=O)Nc1ccccc1)NO [vorinostat]
Outline: as §1

silmitasertib = compound: O=C(O)c1ccc2c(c1)nc(Nc1cccc(Cl)c1)c1ccncc12 [silmitasertib]
Outline: as §1

[5] = compound: O=C1NC(=O)C(c2cnc3ccccn23)=C1c1cn2c3c(cc(F)cc13)CN(C(=O)N1CCCCC1)CC2
Outline: as §1

citarinostat = compound: O=C(CCCCCCNC(=O)c1cnc(N(c2ccccc2)c2ccccc2Cl)nc1)NO [citarinostat]
Outline: as §1

[6] = compound: c1cc(OCCN2CCCCC2)cc(-c2n[nH]c3ccc(-c4nnc[nH]4)cc23)c1
Outline: as §1

Measured: log2 fold change

WEE1 (UniProt P30291)
inactive: [1] -0.455 | [2] 0.205 | [3] 0.04 | [4] -0.045 | entinostat 0.47 | vorinostat 0.05 | silmitasertib -0.122 | [5] 0.089

WDR34 (UniProt Q96EX3)
inactive: [1] 0.094 | [2] -0.048 | [3] 0.007 | [4] 0.043 | entinostat -0.031 | vorinostat 0.102 | silmitasertib 0.18 | [5] -0.019

WIPF2 (UniProt Q8TF74)
inactive: [1] -0.004 | [2] -0.043 | [3] 0.015 | [4] -0.003 | entinostat -0.036 | vorinostat 0.03 | citarinostat 0.015 | silmitasertib -0.035 | [5] -0.013 | [6] -0.022

WDR74 (UniProt Q6RFH5)
inactive: [1] 0.064 | [2] 0.102 | [3] 0.148 | [4] -0.027 | entinostat -0.101 | vorinostat 0.045 | citarinostat -0.022 | silmitasertib 0.025 | [5] 0.11 | [6] -0.048

WDR77 (UniProt Q9BQA1)
inactive: [1] -0.033 | [2] -0.019 | [3] -0.041 | [4] -0.011 | entinostat -0.016 | vorinostat 0.015 | citarinostat 0.034 | silmitasertib -0.052 | [5] 0.001 | [6] 0.005

VHL (UniProt P40337)
inactive: [1] -0.062 | [2] 0.047 | entinostat -0.07 | citarinostat -0.275 | [6] 0.027

VPS72 isoform 2 (UniProt Q15906)
inactive: [1] 0.092 | [2] -0.226 | [3] -0.117 | [4] 0.037 | entinostat -0.032 | citarinostat 0.102 | silmitasertib 0.199 | [5] -0.157 | [6] -0.116

WARS1 (UniProt G3V277)
inactive: [1] 0.029 | [2] -0.52 | [3] -0.131 | [4] -0.302 | entinostat 0.025 | vorinostat -0.047 | silmitasertib 0.001

WDR24 (UniProt Q96S15)
inactive: [1] 0.001 | [2] -0.217 | entinostat -0.014 | vorinostat 0.164 | citarinostat 0.073 | [5] 0.273 | [6] -0.091

WIPI2 (UniProt Q9Y4P8)
inactive: [1] -0.016 | [2] -0.126 | [3] -0.081 | [4] -0.026 | entinostat 0.026 | vorinostat -0.052 | citarinostat -0.014 | silmitasertib 0.076 | [5] 0.006 | [6] -0.066

WSB1 (UniProt Q9Y6I7)
inactive: [5] -0.262

VPS54 (UniProt Q9P1Q0)
inactive: [2] 0.082 | [4] -0.019 | citarinostat -0.007 | [6] -0.018

VMA21 isoform 2 (UniProt Q3ZAQ7)
inactive: [2] 0.103 | [3] 0.004 | vorinostat 0.07 | citarinostat 0.157 | silmitasertib 0.106 | [5] -0.346 | [6] -0.133

WARS1 (UniProt G3V3P2)
inactive: [1] -0.196 | entinostat -0.074

XAB2 (UniProt Q9HCS7)
inactive: [3] 0.011 | silmitasertib 0.038 | [5] 0.298

VWF (UniProt P04275)
inactive: [2] 0.023

WDR76 (UniProt Q9H967)
inactive: [2] -0.229 | [5] 0.139

VIL1 (UniProt P09327)
inactive: vorinostat 0.164 | [5] 0.078

VNN1 (UniProt O95497)
inactive: citarinostat -0.061 | [6] 0.364

VLDLR (UniProt P98155)
inactive: [1] -0.001 | [3] -0.262 | entinostat -0.132 | vorinostat -0.134 | silmitasertib 0.092 | [5] -0.075

WDR75 (UniProt Q8IWA0)
inactive: [2] -0.004 | [3] 0.173 | [4] -0.125 | silmitasertib 0.086 | [5] 0.17

WWP2 (UniProt O00308)
inactive: [5] 0.335

WAC (UniProt Q9BTA9)
inactive: vorinostat -0.163

WASF1 (UniProt Q92558)
inactive: [2] -0.107 | [3] -0.138 | [4] -0.003 | vorinostat -0.009 | citarinostat -0.024 | silmitasertib 0.047 | [5] 0.11 | [6] -0.086

WDFY2 (UniProt Q96P53)
inactive: [2] -0.307 | [4] 0.002

WARS1 (UniProt G3V227)
inactive: [2] 0.045 | [4] -0.115 | [5] -0.084

WIPI2 isoform 6 (UniProt Q9Y4P8)
inactive: [2] 0.068 | vorinostat 0.124 | citarinostat 0.248 | [6] 0.02

WARS1 (UniProt G3V5U1)
inactive: [1] -0.609 | [3] -0.142 | entinostat -0.218 | citarinostat -0.608 | silmitasertib 0.297 | [5] -0.761 | [6] -0.083

WDR46, A0A0G2JJL1
inactive: [1] 0.222 | [3] 0.515 | [4] 0.146 | entinostat -0.113 | citarinostat -0.163 | silmitasertib 0.247 | [5] 0.284 | [6] 0.013

VDAC2 (UniProt Q5JSD1)
inactive: [3] -0.177 | silmitasertib 0.215 | [5] 0.461

WDR91 (UniProt A4D1P6)
inactive: [2] -0.122 | [3] 0.01 | [4] -0.15 | citarinostat -0.174 | silmitasertib 0.15 | [5] 0.087 | [6] 0.208

Fetched one by one from the list above (three):
WDR46, A0A0G2JJL1
inactive: [1] 0.222 | [3] 0.515 | [4] 0.146 | entinostat -0.113 | citarinostat -0.163 | silmitasertib 0.247 | [5] 0.284 | [6] 0.013

XAB2 (UniProt Q9HCS7)
inactive: [3] 0.011 | silmitasertib 0.038 | [5] 0.298

WIPF2 (UniProt Q8TF74)
inactive: [1] -0.004 | [2] -0.043 | [3] 0.015 | [4] -0.003 | entinostat -0.036 | vorinostat 0.03 | citarinostat 0.015 | silmitasertib -0.035 | [5] -0.013 | [6] -0.022

Going on with the list.

VEGFA (UniProt H0YBI8)
inactive: [2] -0.02 | [3] 0.293 | [4] 0.058 | citarinostat 0.075 | silmitasertib 0.014 | [6] -0.194

WDR19 (UniProt Q8NEZ3)
inactive: [2] -0.275 | [4] -0.212 | citarinostat -0.052 | [6] 0.084

VPS37C (UniProt A5D8V6)
inactive: [2] 0.081 | [3] -0.07 | [4] -0.016 | vorinostat -0.11 | citarinostat -0.016 | silmitasertib 0.05 | [5] -0.048 | [6] -0.265

VDAC2 (UniProt Q5JSD2)
inactive: [1] -0.086 | [3] -0.249 | entinostat -0.106 | vorinostat -0.14 | citarinostat -0.009 | silmitasertib 0.193 | [5] -0.045 | [6] -0.057

VPS35, A0A1W2PP10
inactive: [3] 0.098 | [4] -0.199 | citarinostat -0.046 | silmitasertib -0.094 | [5] -0.047 | [6] 0.007

WARS1 (UniProt G3V339)
inactive: [5] -0.387

WWOX (UniProt Q9NZC7)
inactive: [1] 0.288 | [3] -0.055 | entinostat -0.098 | silmitasertib 0.035

WNK4 (UniProt Q96J92)
inactive: [2] 0.059 | [4] -0.503 | [5] 0.047

WDR4 isoform 3 (UniProt P57081)
inactive: [1] -0.103 | entinostat -0.02 | vorinostat -0.118 | [5] -0.135

VCPKMT (UniProt Q9H867)
inactive: [2] -0.162

VIRMA (UniProt Q69YN4)
inactive: vorinostat -0.24 | citarinostat 0.091 | [5] -0.471 | [6] -0.042

VWA3B isoform 6 (UniProt Q502W6)
inactive: [2] -0.271 | [3] -0.023 | [4] -0.059 | vorinostat 0.076 | citarinostat -0.128 | silmitasertib 0.162 | [5] -0.009 | [6] -0.076
